These results are taken from article PMC7177527.

The exact form of at least one protein or probe is not confirmed. Where cells or extracts were used, other partners may take part. Tags and fusion partners may be left off the protein sequences shown.

This series deals with T1, ToIRF1 (Flag-IRF1) (Trachinotus ovatus) (UniProt A0A6M3BF88).
T1 sequence (looked up): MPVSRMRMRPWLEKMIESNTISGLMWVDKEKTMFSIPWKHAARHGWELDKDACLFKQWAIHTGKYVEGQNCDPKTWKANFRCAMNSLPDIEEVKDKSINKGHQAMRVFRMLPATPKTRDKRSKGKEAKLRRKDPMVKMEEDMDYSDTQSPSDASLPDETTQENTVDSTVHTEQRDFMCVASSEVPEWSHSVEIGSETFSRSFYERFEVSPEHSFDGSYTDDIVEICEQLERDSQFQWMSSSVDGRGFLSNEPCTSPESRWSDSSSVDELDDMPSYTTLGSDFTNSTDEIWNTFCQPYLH
Nature of the series: EMSA. The settings on record: Beyotime EMSA/Gel-Shift Kit binding buffer (composition not stated), 25 °C, nondenaturing 4% PAGE; protein in a lysate after overexpression; residues 1-299; protein details: Flag; label: biotin. A general note: Mobility shift assays separate free from complexed probe on a gel.

As for “CAGCAGAAATCCACTGAGCGGGAAAAATAT (double strand) [IFNa3-P2-WT5 (M5 ISRE)]”, the binding result is “binds”.
